For this test, the target named is LILRB4抗原 (人LILRB4蛋白胞外段) (human) (UniProt Q8NHJ6). Put plainly: phage ELISA on coated LILRB4. In general terms: ELISA stands for enzyme-linked immunosorbent assay.

Sequences of proteins named here, by UniProt entry; tags and fusion partners are left off. Residues count along the entry.
UniProt Q8NHJ6, residues 22-259: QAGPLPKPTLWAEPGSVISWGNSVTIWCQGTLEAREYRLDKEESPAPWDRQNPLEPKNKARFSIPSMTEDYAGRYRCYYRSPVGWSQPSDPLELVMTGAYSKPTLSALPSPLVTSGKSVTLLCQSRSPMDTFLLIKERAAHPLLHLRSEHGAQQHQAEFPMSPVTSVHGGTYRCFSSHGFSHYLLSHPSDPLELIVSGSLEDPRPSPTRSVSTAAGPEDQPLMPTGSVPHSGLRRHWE

No constants are given. Whether binding was seen depends on the method and setting. Some results given as binding are weak or reduced against the parent protein; the word gives no strength.

B1: MB-Ⅰ 噬菌体单克隆抗体 (phage-displayed single-chain antibody) (scFv, V domains shown)
VH: QVQLQESGAELVKPGASVKLSCKASGYTFTNYWMHWVKQRPGQGLEWIGEINPSNGRTNYNEKFKTKATLTVDKSSSTAYMQLSSLTSEDSAVYYCARWGQLGLREGYYAVDYWGQGTSVTVSS
VL: DIVMTQSPSSLSASLGDRVTISCRASQDISNYLNWYQQKPDGTVKLLIYYTSRLHSGVPSRFSGSGSGTDYSLTISNLEQEDIATYFCQQGNTLPPTFGGGTKLEIK
For B1, the binding entry was “binds”.

B2: MA-Ⅰ 噬菌体单克隆抗体 (phage-displayed single-chain antibody) (scFv, V domains shown)
VH: EVQLQQSGGGLVKPGGSLKLSCAASGFTFSSYTMSWVRQTPEKRLEWVATISSGGTYTYYPDSVKGRFTISRDNAKNTLYLQMSSLKSEDTAMYYCTRDGYDGFDYWGQGTTLTVSS
VL: DIVMTQTTLSLPVSPGDQASISCRSSQSLAHSNGNTYLHWYLQKPGQSPKLLIYKVSNRFSGVPDRFSGSGSGTDFTLKISRVEAEDLGVYFCSQSTLVPTFGGGTKLEIK
For B2, the binding entry is listed as “binds”.

Values taken from CN116173202A.
